Patent US20150018285A1 (CARMEL HAIFA UNIVERSITY ECONOMIC, published 2015)
Results are given in words; binding and its absence hold for the method and conditions named. For part of these data: In cells and extracts the contact can be indirect. Some entries that bind do so weakly or less than the wild type. For part of these data: Where a sequence is shown, tags or fusion partners need not be part of it. Each block holds one binder with its values, some of them ahead of it.

By UniProt entry, the sequences of proteins in these tests, tags left out. Where a name states a change or a piece, a line headed by the entry shows the natural chain unless it says otherwise.
UniProt P10415: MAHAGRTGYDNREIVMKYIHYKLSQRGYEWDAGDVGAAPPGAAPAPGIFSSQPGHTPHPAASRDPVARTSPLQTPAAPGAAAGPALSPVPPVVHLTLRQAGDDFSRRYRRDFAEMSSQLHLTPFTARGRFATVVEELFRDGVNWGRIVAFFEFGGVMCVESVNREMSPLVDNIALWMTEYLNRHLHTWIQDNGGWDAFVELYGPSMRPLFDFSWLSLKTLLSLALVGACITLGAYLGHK
UniProt P98170: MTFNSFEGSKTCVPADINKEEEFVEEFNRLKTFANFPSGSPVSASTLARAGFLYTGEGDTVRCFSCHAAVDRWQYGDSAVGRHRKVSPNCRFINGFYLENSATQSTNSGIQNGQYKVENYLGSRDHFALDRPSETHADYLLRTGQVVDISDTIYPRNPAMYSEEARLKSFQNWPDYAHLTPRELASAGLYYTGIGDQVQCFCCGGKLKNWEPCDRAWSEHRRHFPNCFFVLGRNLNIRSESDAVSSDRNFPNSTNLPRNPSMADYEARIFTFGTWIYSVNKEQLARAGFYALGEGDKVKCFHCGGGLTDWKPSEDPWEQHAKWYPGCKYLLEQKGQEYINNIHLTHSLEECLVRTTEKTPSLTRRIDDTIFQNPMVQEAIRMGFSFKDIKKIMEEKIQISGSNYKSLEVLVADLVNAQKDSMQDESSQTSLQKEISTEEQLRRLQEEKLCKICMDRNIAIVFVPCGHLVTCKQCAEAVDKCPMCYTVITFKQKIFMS

Legend:
[1] = target: T1, B-cell CLL/lymphoma 2 (Bcl-2) (human, UniProt P10415 1-239); experiment: IP with anti-ARTS monoclonal antibody from COS-7 cells transfected with the 6-Myc-ARTS construct; the partner is endogenous in COS-7 (FIG. 4B)
T1 construct: Used as endogenous Bcl-2 (HeLa, BT-549) or from a transfected Bcl-2 construct; also called Bch 2; endogenous Bcl-2

[2] = target: T1, B-cell CLL/lymphoma 2 (Bcl-2); experiment: pull-down with anti-myc agarose beads from COS-7 cells co-transfected with Bcl-2 and ARTS, Western blot (FIG. 4A)
[3] = target: T1, B-cell CLL/lymphoma 2 (Bcl-2); experiment: IP with monoclonal anti-ARTS antibody, Western blot with anti-Bcl-2 (FIG. 10)
[4] = target: T1, B-cell CLL/lymphoma 2 (Bcl-2); experiment: immunoprecipitation of ARTS from cell lysates, Western blot (FIG. 4B)
[5] = target: T1, B-cell CLL/lymphoma 2 (Bcl-2); experiment: IP with monoclonal anti-ARTS antibody from HeLa wt lysate, Western blot (FIG. 9); binding still seen after 24 h of ABT-263
[6] = target: T1, B-cell CLL/lymphoma 2 (Bcl-2); experiment: IP of the mitochondrial fraction with anti-Bcl-2 antibody, Western blot (FIG. 4E)
[7] = target: T1, B-cell CLL/lymphoma 2 (Bcl-2); experiment: co-IP with anti-ARTS antibody from HeLa lysates, with or without 1.75 uM STS for 2 h, Western blot (FIG. 4D)
[8] = target: T1, B-cell CLL/lymphoma 2 (Bcl-2); experiment: IP with anti-XIAP or anti-ARTS antibody from HeLa cells after 1.75 uM STS for 2 h (FIGS. 4C, 4D)
[9] = target: T1, B-cell CLL/lymphoma 2 (Bcl-2); experiment: IP of endogenous Bcl-2 from HeLa cells, Western blot (FIG. 4E)
[10] = target: T1, B-cell CLL/lymphoma 2 (Bcl-2); experiment: IP with anti-ARTS monoclonal antibody from HeLa and BT-549 cells, Western blot (FIG. 4B)
[11] = target: T1, B-cell CLL/lymphoma 2 (Bcl-2); experiment: IP with monoclonal anti-ARTS antibody (400 ug protein) after 25 uM ABT-263 for 3 and 24 h, with or without QVD, Western blot (FIG. 10)
[12] = target: T1, B-cell CLL/lymphoma 2 (Bcl-2); experiment: IP of transfected HeLa lysates with anti-Bcl-2 antibody, Western blot with anti-ARTS (FIG. 11A)
[13] = target: T1, B-cell CLL/lymphoma 2 (Bcl-2); experiment: IP with monoclonal anti-ARTS antibody from HeLa wt lysate (750 ug), with or without 25 uM ABT-263 for 24 h, Western blot (FIG. 9)
[14] = target: XIAP cloned into pBiFC-VN173 (1-172) (human) (UniProt P98170); experiment: split-Venus BiFC in HeLa cells, read by flow cytometry; positive control
[15] = target: Bcl-2 cloned into pBiFC-VN173 (human) (UniProt P10415); experiment: split-Venus BiFC in HeLa cells, read by flow cytometry

binding [1]: binds
binding [2]: binds
B1: 6-Myc-ARTS (other)
chain: MIKRFLEDTTDDGELSKFVKDFSGNASCHPPEAKTWASRPQVPEPRPQAPDLYDDDLEFRPPSRPQSSDNQQYFCAPAPLSPSARPRSPWGKLDPYDSSEDDKEYVGFATLPNQVHRKSVKKGFDFTLMVAGESGLGKSTLVNSLFLTDLYRDRKLLGAEERIMQTVEITKHAVDIEEKGVRLRLTIVDTPGFGDAVNNTECWKPVAEYIDQQFEQYFRDESGLNRKNIQDNRVHCCLYFISPFGHGYGPSLRLLAPPGAVKGTGQEHQGQGCH
notes: Expressed by transient transfection in COS-7 cells; also called pSC2-6Myc ARTS; not shown: 6xMyc tag of pSC2-6Myc

binding [3]: binds
binding [4]: binds
binding [5]: binds
binding [6]: binds
binding [7]: binds
binding [8]: binds
binding [9]: binds
binding [10]: binds
binding [11]: binds
binding [12]: binds
binding [13]: binds
B2: Apoptosis Related Protein in the TGF-beta Signaling Pathway (ARTS) (other)
chain: B1 chain
notes: also called FL ARTS; full length ARTS

binding [14]: binds
binding [15]: binds
B3: ARTS cloned into pBiFC-VC155 (155-238) (protein, not shown: large carriers)
chain: B1 chain
